The record followed here is patent US20040001826A1.

Amino acid sequences for entries named in this document (tags omitted). A change or cut given only in a name is not applied to a line headed by its entry. Residues count along the entry.
UniProt P30273, residues 19-86: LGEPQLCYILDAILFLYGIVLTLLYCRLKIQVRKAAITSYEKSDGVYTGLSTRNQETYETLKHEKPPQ
UniProt P08121, residues 155-1219: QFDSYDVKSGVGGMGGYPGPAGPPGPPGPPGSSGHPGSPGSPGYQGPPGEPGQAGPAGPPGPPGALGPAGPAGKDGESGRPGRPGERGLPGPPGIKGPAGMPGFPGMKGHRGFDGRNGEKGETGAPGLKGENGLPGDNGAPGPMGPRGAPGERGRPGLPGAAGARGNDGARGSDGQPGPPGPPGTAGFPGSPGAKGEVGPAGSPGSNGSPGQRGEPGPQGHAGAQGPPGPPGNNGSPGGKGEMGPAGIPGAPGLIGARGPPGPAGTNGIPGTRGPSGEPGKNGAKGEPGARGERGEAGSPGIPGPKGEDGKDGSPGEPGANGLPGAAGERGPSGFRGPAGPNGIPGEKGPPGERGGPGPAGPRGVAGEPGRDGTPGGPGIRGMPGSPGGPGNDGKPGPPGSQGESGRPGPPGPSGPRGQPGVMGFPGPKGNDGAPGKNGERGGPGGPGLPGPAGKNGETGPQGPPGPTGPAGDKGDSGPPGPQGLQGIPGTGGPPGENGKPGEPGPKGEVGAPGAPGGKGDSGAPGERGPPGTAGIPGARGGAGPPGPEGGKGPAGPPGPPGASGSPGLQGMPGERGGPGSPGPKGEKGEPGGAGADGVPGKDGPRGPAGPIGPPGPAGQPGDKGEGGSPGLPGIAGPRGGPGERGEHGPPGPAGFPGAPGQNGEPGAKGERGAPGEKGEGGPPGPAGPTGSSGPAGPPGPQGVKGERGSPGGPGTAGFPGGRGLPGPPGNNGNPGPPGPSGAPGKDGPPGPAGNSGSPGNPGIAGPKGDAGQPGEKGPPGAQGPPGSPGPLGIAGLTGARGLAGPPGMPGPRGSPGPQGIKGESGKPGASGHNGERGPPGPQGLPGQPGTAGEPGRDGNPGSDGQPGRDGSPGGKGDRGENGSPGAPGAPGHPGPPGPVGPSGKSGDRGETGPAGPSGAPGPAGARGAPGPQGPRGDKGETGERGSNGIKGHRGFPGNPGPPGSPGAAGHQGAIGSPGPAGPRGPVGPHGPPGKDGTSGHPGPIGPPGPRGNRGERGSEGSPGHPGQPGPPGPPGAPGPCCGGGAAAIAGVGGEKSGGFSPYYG
UniProt Q9HCN6: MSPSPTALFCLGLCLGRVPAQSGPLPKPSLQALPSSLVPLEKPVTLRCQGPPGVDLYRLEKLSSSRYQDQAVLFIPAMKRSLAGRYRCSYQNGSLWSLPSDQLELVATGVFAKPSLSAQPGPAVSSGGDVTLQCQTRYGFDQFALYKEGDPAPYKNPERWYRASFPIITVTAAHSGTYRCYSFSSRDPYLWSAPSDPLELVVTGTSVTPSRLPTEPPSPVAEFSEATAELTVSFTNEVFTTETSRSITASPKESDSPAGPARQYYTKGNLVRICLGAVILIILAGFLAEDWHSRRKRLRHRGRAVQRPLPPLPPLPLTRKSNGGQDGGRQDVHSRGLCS

The target in test [1] is Fc receptor gamma chain (FcRγ) (UniProt P30273). Nature of the test: co-immunoprecipitation with anti-FcRγ antibody from lysates of GPVI-transduced U937 cells and platelets, immunoblot.
For test [2], the target named is mouse collagen (type III) in descending aorta sections (mouse) (UniProt P08121). As to the kind of experiment: immunofluorescence on mouse aorta sections.
For test [3] the target is unchanged. As to the kind of experiment: immunofluorescence on mouse descending aorta sections, anti-human Fc detection.

These are yes or no findings as the source states them, for the method shown. For part of these data: In cells and extracts the contact can be indirect. Some results given as binding are weak or reduced against the parent protein; the word gives no strength.

Regarding “human TANGO 268 (glycoprotein VI, GPVI) (from UniProt Q9HCN6 21-339) (receptor)”, in test [1], the binding result was “binds”. “soluble human GPVI-Fc (extracellular domain of GPVI fused to human IgG1 Fc) (from UniProt Q9HCN6 21-267) (Fc fusion)”: the binding entry in test [2] and in test [3] was “binds” throughout.
